{
  "source": "patent US8343957B2",
  "about": "“Therapeutic pyrazoloquinoline urea derivatives” (Dart Neuroscience (Cayman) Ltd., priority 2007, dated 2013)",
  "target": "GABAA central benzodiazepine receptor",
  "test": "Benzodiazepine Binding Assay",
  "settings": "read-out: BZ binding Assay IC50; 1 nM (3H)-flunitrazepam, rat whole brain (except cerebellum) membranes, 60 minutes at 25° C.",
  "note": "At least one structure is not confirmed: it was looked up by name or label, or the drawing left a doubt.",
  "data": [
    {"compound": "CC(C)N1CCN(C(=O)n2cc3c(=O)n(-c4ccccn4)nc-3c3cc(F)ccc32)CC1", "note": "[Compd 31, 5-(4-Isopropylpiperazine-1-carbonyl)-8-fluoro-2-pyridyl-2,5-dihydro-pyrazolo-(4,3-c)quinolin-3-one]", "values": [
      {"measurement": "IC50", "result": "< 1000", "unit": "nM"}
    ]}
  ]
}
